The values below come from patent publication US20100061928A1, “LABELLED ANALOGUES OF HALOBENZAMIDES AS RADIOPHARMACEUTICALS” (Institut National De La Sante et De La Recherche Medicale …, priority 2006, published 2010).

Where a name gives a salt, the structure may show the parent alone.

In the data set the test system is tumour. The experiment in a line: Dosimetry with regard to the tumour (MIRD programme, extrapolated to ^131I). The settings on record: for Dose absorbed: dose delivered to the tumour, extrapolated to 131I labelling; for dose delivered to the tumour with respect to BZA: extrapolated to labelling with ^131I.

Consider `CCN(CC)CCNC(=O)c1cnc2cc(I)ccc2n1.Cl.Cl` [compound 46, N-(2-diethylaminoethyl)-6-iodoquinoxaline-2-carboxamide dihydrochloride], for which the Dose absorbed is 4.93 cGy/μCi injected and the “dose delivered to the tumour with respect to BZA” value (shortened to “dose delivered to the tumour”) was 4.9 ×.

For the molecule `CCN(CC)CCNC(=O)c1nc2ccc(I)cc2[nH]1.Cl.Cl` [compound 26, N-(2-diethylaminoethyl)-5-iodobenzimidazole-2-carboxamide dihydrochloride], the Dose absorbed is on record as 3.05 cGy/μCi injected and the “dose delivered to the tumour” value is 3 ×.

`CCCN(CCC)CCCCNC(=O)c1ccc2cc(I)ccc2n1` [compound 49, N-(4-dipropylaminobutyl)-6-iodoquinoline-2-carboxamide dihydrochloride]: the Dose absorbed is 5.75 cGy/μCi injected and the “dose delivered to the tumour” value is 5.8 ×.

As to `CCN(CC)CCNC(=O)c1ccc2cncc(I)c2n1.Cl.Cl` [compound 142, N-(2-diethylaminoethyl)-8-iodo-1,6-naphthyridine-2-carboxamide dihydrochloride], the Dose absorbed was 3.56 cGy/μCi injected.

As for `CCN(CC)CCNC(=O)c1cc2cc(I)ccc2[nH]1` [compound 10, N-(2-diethylaminoethyl)-5-iodoindole-2-carboxamide hydrochloride], the Dose absorbed is recorded as 0.89 cGy/μCi injected.

For the molecule `CCN(CC)CCNC(=O)c1cc2c(I)cccc2cn1` [compound 39, N-(2-diethylaminoethyl)-5-iodoisoquinoline-3-carboxamide dihydrochloride], the Dose absorbed was 1.86 cGy/μCi injected.

For the molecule `CCN(CC)CCNC(=O)c1ccc2cc(I)ccc2n1.Cl.Cl` [compound 31, N-(2-diethylaminoethyl)-6-iodoquinoline-2-carboxamide dihydrochloride], the Dose absorbed is 3.67 cGy/μCi injected and the “dose delivered to the tumour” value is 3.7 ×.

Take `CCN(CC)CCNC(=O)c1ccc2cc(I)ccc2c1` [compound 3, N-(2-diethylaminoethyl)-6-iodo-2-naphthamide hydrochloride]: the Dose absorbed is on record as 1.63 cGy/μCi injected.

As for `CCN(CC)CCNC(=O)c1c[nH]c2ccc(I)cc2c1=O` [compound 35, N-(2-diethylaminoethyl)-1,4-dihydro-6-iodo-4-oxoquinoline-3-carboxamide dihydrochloride], the Dose absorbed is 1.36 cGy/μCi injected.

Regarding `CCN(CC)CCNC(=O)c1cc2c(I)cccc2s1.Cl` [compound 13, N-(2-diethylaminoethyl)-4-iodobenzo[b]thiophene-2-carboxamide hydrochloride], the Dose absorbed is 1.72 cGy/μCi injected.

On to `CCN(CC)CCNC(=O)c1ccc(I)nc1` [compound 7, N-(2-diethylaminoethyl)-6-iodonicotinamide dihydrochloride], for which the Dose absorbed is 1.58 cGy/μCi injected.

For `CCN(CC)CCNC(=O)c1nc2ccccn2c1I` [compound 16, N-(2-diethylaminoethyl)-3-iodoimidazo[1,2-a]pyridine-2-carboxamide dihydrochloride], the Dose absorbed is on record as 0.13 cGy/μCi injected.

With `CCN(CC)CCNC(=O)c1cccc2nc3cc(I)ccc3nc12` [compound 151, N-(2-diethylaminoethyl)-7-iodophenazine-1-carboxamide dihydrochloride], the Dose absorbed is 3.70 cGy/μCi injected and the “dose delivered to the tumour” value was 3.7 ×.

For `CCN(CC)CCNC(=O)c1ccc(I)cc1` [BZA, N-(2-diethylaminoethyl)-4-iodobenzamide, reference compound], the Dose absorbed is given as 1.00 cGy/μCi injected.
